# Screening data, single-dose tests

Data taken from ChEMBL document CHEMBL3988442, “University of Dundee, Small-Polar-MMV Screening Library” (2021).

A: 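Cell assay of Leishmania donovani living inside macrophages; the read-out is not stated. Compounds at 30 µM. Direction is inferred from retests: higher values go with stronger inhibition. About 69,000 compounds were tested under these conditions; 1.5% (about 1,000) showed 50% or more at least once.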
B: 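Assay of Toxoplasma gondii numbers, read through their beta-galactosidase reporter with a colour substrate. Compounds at 10 µM. The record gives no direction; the compounds picked for IC50 retests had high values, so higher reads as fewer parasites. Size under these conditions: about 67,000 compounds, about 260 of them at 50% or above in at least one test.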

The filed quantity is “Percent Effect” (%).
The controls that fix the scale are not given in the record; negative values are as filed.
This is an unselected part of the compounds tested.
Two or more numbers in one place are separate tests of the same structure; such repeats can differ widely.
A dash means the value is not listed here; it may have been measured.

| Compound | A | B |
|---|---|---|
| `CC(C)[C@@H]1CN(C(=O)C2(c3ccccc3)CCN(C)CC2)C[C@H]1C(=O)O` | 26.69 | -0.946 |
| `CCc1noc(C2CCN(C(=O)CCn3nc(C)cc3C)CC2)n1` | 9.817 | 23.52 |
| `Cc1nnc(CN(C)C2CCN(CCc3ccccn3)CC2)o1` | 26.09 | -1.755 |
| `CCCNC(=O)COc1ccc(-c2ccccc2)nc1` | 15.11 | -0.1836 |
| `CC(C)c1cc(C(=O)N2CCOCC2CC(=O)c2ccco2)nn1C` (stereo not drawn) | -24.4 | 1.464 |
| `Cc1csc(C(C)(C)NCC(=O)N2CCCC(C(F)(F)F)C2)n1` (stereo not drawn) | 6.122 | 3.683 |
| `COc1ncc(C2(O)CCN(Cc3ccccc3O)CC2)c(OC)n1` | 9.268 | -8.651 |
| `Cc1ccc(CC2CCCN2CC(=O)NCc2ccccn2)cc1` (stereo not drawn) | 23.47 | 0.9553 |
| `CNc1ncc2c(n1)CN(c1cccc(OC)c1)C2=O` | 33.88 | 69.02 |
| `O=C(NCCCN1CCOCC1)Nc1cnc2cc(Cl)ccc2c1O` | -15.68 | 4.805 |
| `c1nc2onc(C3CC3)c2cc1-c1nnc(C2CC2)o1` | 8.874 | 7.562 |
| `CC(C)OC(C)c1nnc(SCC(=O)O)n1-c1ccc(F)cc1F` (stereo not drawn) | 39.46 | 3.577 |
| `O=C(CCc1ccccc1)NCC(O)c1c(F)cccc1F` (stereo not drawn) | -0.4988 | -58.83 |
| `CSc1ccccc1C(=O)Nc1ccc(OC2CCN(C)CC2)cc1` | -21.96 | 11.68 |
| `CN(C)CCCn1ccnc1C1CCN(c2cccc(C(=O)O)n2)CC1` | 28.92 | 3.128 |
| `CCNc1nc(C)c(C(=O)N2CCN(c3ncccc3C)CC2)s1` | -46.6 | 4.506 |
| `Cc1ccc(N2CCC3(CCN(C(=O)c4ccsc4)C3)CC2)nn1.O=C(O)C(F)(F)F` | 30.35 | 2.703 |
| `O=C(O)c1ccc(F)c(S(=O)(=O)Nc2ccc(-n3cccn3)c(Cl)c2)c1` | 8.663 | -5.066 |
| `CCc1nc2c(c(NC3CCC3)n1)CCN(C(=O)CO)CC2` | 19.53 | 33.64 |
| `Cc1ccc(SCCCNC(=O)c2cn([C@H]3CC[C@@H](N)CC3)nn2)cc1` | 94.34 | 3.029 |
| `COC(=O)c1ccc2ccn(CC3CCNC3)c(=O)c2c1` (stereo not drawn) | 17.72 | 6.24 |
| `COCc1ccc(CN2CCC(O)(Cn3ccc4ncccc43)CC2)o1.Cl` | 36.94 | -2.385 |
| `CC1CC(=O)c2cc(C(=O)N3CCN(C)CC3)c(=O)[nH]c2C1` (stereo not drawn) | 37.07 | -28.07 |
| `[H][C@@]12CS(=O)(=O)C[C@]1([H])N(S(=O)(=O)N1CCC(OC)CC1)CCN2CC` | 9.149 | 1.484 |
| `CN(C(=O)c1cnc(N2CCOCC2)nc1)C1Cc2ccccc2C1` | -7.791 | -0.8999 |
| `Cn1c(=O)n(C)c2nc(Cl)c(CC(=O)c3ccc(F)cc3)n2c1=O` | 12.15 | 26.35 |
| `CC(=O)N1CCCN(C(=O)c2csc(-c3ccc(C)cc3C)n2)CC1` | 23.24 | 0.4308 |
| `COc1cc(NC(=O)c2ccc(C)cc2C)c(C(=O)N(C)C)cc1OC` | 21.08 | 16.86 |
| `CCC1CN(C)c2ccccc2CN1C(=O)Nc1ccccc1OC` (stereo not drawn) | 1.255 | -1.743 |
| `Cc1nc(N2CCCC2)nc2c1CCN(C(=O)N1CCCC1)CC2` | -2.559 | -40.88 |
| `Cc1nn(C)c(C)c1CC(=O)NCC1(C(N)=O)CCOCC1` | -10.75 | -13.16 |
| `CCC(CC)c1cc(CNC(=O)N2CCC[C@@H]2CO)on1` | -30.85 | -2.029 |
| `CCC(SC)C(=O)N1CCC(n2ccnn2)CC1` (stereo not drawn) | -15.17 | 6.409 |
| `CCC(C)NC(=O)c1ccn(COc2ccccc2Cl)n1` (stereo not drawn) | -4.313 | 17.81 |
| `O=C(CCOc1ccccc1F)N1CCCC(n2cncn2)C1` (stereo not drawn) | 29.63 | -2.504 |
| `CCCn1nnnc1CN1Cc2ccccc2CC1c1nnc(C)o1` (stereo not drawn) | 14.94 | -1.408 |
| `CC(C)N(CC(N)=O)C(=O)CCC(=O)c1ccc(F)cc1F` | 5.176 | 12.97 |
| `[H][C@]12CNC[C@@]1(C(=O)NCCCOC(C)C)CN(S(C)(=O)=O)C2` | 26.3 | 3.285 |
| `CCCC(=O)N(C)Cc1cccc(OC(C)C)c1` | -6.7 | 0.05359 |
| `CC(=O)NCC(=O)N1CCC2(COCc3c(C)nc(N(C)C)nc32)C1` (stereo not drawn) | 0.3657 | -2.305 |
| `Cc1ncc(CN(C)CCO)c2cc(C(=O)c3ccc(Br)cc3)oc12.Cl` | 15.78 | 15.47 |
| `CCN1CC2(CCOCC2)c2cc(NS(=O)(=O)CC)ccc21.O=C(O)C(F)(F)F` | 28.67 | -12.86 |
| `CC1CCN(CCNC(=O)c2scnc2Cl)CC1` | -11.49 | -44.4 |
| `Cc1cccc(CN2CCc3onc(CN(C)C)c3C2)n1` | 17.01 | 6.986 |
| `O=C(COC1CCCC1)N1CCCN(c2ncccn2)CC1` | -11.5 | -3.797 |
| `CC(C)N1CCn2c(nc3cc(C(N)=O)ccc32)C1` | -15.42 | -4.184 |
| `CN(C)c1cc(CNc2cncc(-n3cccn3)n2)ccn1` | 47.04 | -20.14 |
| `CCCc1noc(CCC(=O)N2CCCC2c2ccncc2)n1` (stereo not drawn) | 10.6 | 1.401 |
| `CN1CCN(C(=O)C2CC=CC2)c2ccccc21` | -17.13 | 6.026 |
| `Cn1ccnc1SCCNc1ccnc(C(F)(F)F)n1` | 12.92 | 3.005 |
| `CCOc1ccc(CN(C)C(=O)c2nc(N3CCCC3)ncc2Cl)cc1` | 58.99 | -25.73 |
| `COc1ccc(OCCN(C)c2cc(C)nc(N)n2)cc1` | 6.601 | 3.121 |
| `C1CC(N2Cc3nnn(CC4CC4)c3C(COCC3CC3)C2)C1.O=C(O)C(F)(F)F` (stereo not drawn) | -2.202 | 4.577 |
| `Cn1nc(C(=O)N2CCC(Oc3ccc(C#N)cn3)CC2)ccc1=O` | -16.89 | 9.729 |
| `CN1C(=O)C2(CCN(S(C)(=O)=O)CC2)c2cc(F)ccc21.Cl` | 12.91 | -17.54 |
| `Cc1ccc(C(CNCc2cccn2C)N2CCOCC2)s1` (stereo not drawn) | 13.38 | 0.4823 |
| `O=C(O)C(F)(F)F.[H][C@@]12C[C@H](C(=O)N3CCCC3)[C@@]([H])(CN(CCC(C)C)C1)O2` | 21.94 | 7.588 |
| `CC(CO)N1CCN(C(=O)OC(C)(C)C)CC1` (stereo not drawn) | -0.7746 | 4.661 |
| `CCOC(C)C(=O)NS(=O)(=O)c1cccc2cc(C)cnc12` (stereo not drawn) | -15.3 | 8.43 |
| `CCn1c(N)nc2cc(C(=O)NCCc3ccccc3C)cnc21` | 29.75 | 1.861 |
| `Cc1ccn(-c2ccnc(N3CCC(N4CCCCC4)CC3)n2)n1` | -11.85 | 0.3277 |
| `O=C1CCC2(CCCN(c3ncnc4[nH]cnc34)C2)CN1CCCO` (stereo not drawn) | 5.961 | 2.594 |
| `Cc1nc(N2CCC(O)(c3ccccc3)CC2)c2c(C)nn(C)c2n1` | 16.77 | 15.62 |
| `CN(C)CC1CN(c2cnc3ccccc3n2)CCO1` (stereo not drawn) | 33.95 | - |
| `CC(=O)N1CCCC1c1ccc(CN2CCOCC2)cn1` (stereo not drawn) | -7.74 | -31.22 |
| `O=C(CN1CCC(OCC2CCCO2)CC1)NCC(F)(F)F` (stereo not drawn) | 16.85 | 2.5 |
| `CC(C)(C)c1csc(CCNC(=O)[C@H](c2ccccc2)n2cnnn2)n1` | 16.36 | -4.673 |
| `[H][C@@]12CC(=O)N(C)[C@@]1([H])CCN2S(=O)(=O)Cc1ccccc1` | -17.87 | 13.29 |
| `c1cncc(-c2ccc3c(c2)CCC32CCNCC2)c1` | 19.28 | 4.124 |
| `Cc1nc(-c2cccc(N3CCC(N[C@@H]4CCOC4)CC3)c2)cs1` | -5.486 | 4.998 |
| `CCCc1nc(CN2CCOC(Cn3cncn3)C2)no1` (stereo not drawn) | -15.08 | 0.9561 |
| `O=c1c(NCCNCCO)c(N2CCN(c3ccccc3)CC2)c1=O` | -12.53 and 12.04 | -14.98 |
| `O=S(=O)(c1cccs1)N1CCN(Cc2nc(-c3ccco3)cs2)CC1` | 7.08 and 37.9 | 3.474 |
| `Cn1cc(CN2CC3(CCN(Cc4ccsc4)C3)C2)cn1` | -22.88 | -1.465 |
| `CC(=O)N1CCCN(C(=O)NCCCN(C)S(C)(=O)=O)CC1` | -3.446 | -1.55 |
| `Cc1nc(C)n(CC2CCCCN2CCS(C)(=O)=O)n1` (stereo not drawn) | -12.37 | -4.616 |
| `Cc1cc(C)n(CC2CCCCN2C(=O)c2cnn(C)c2)n1` (stereo not drawn) | -31.23 | 14.08 |
| `CC(C)C(O)CNC(=O)CCCc1ccccn1` (stereo not drawn) | 26.32 | -8.405 |
| `CC(=O)N1CCOC2(CCCN(C(=O)CCN3CCCCC3)C2)C1` (stereo not drawn) | -1.021 | 7.574 |

For reference, 6 entries once more:

Compound	A	B
CC(=O)N1CCOC2(CCCN(C(=O)CCN3CCCCC3)C2)C1 (stereo not drawn)	-1.021	7.574
O=C(CCOc1ccccc1F)N1CCCC(n2cncn2)C1 (stereo not drawn)	29.63	-2.504
Cc1nnc(CN(C)C2CCN(CCc3ccccn3)CC2)o1	26.09	-1.755
CCCc1nc(CN2CCOC(Cn3cncn3)C2)no1 (stereo not drawn)	-15.08	0.9561
CC(C)OC(C)c1nnc(SCC(=O)O)n1-c1ccc(F)cc1F (stereo not drawn)	39.46	3.577
CCC(SC)C(=O)N1CCC(n2ccnn2)CC1 (stereo not drawn)	-15.17	6.409